The reference is the same well before dosing, and untreated signal decays as well.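 Fibroblast labels denote human fibroblasts, mainly primary ones from uterus (C12385, HUF), lung (H6013), bone (Hs27A), adrenal (HADF) and skin (WS1), plus mammary HMF and breast cancer-associated Hs343T. Cancer cells are basal-like or mesenchymal-like triple-negative breast cancer lines. A hit is a response shift exceeding 3x replicate standard deviation. The tissue of the other fibroblasts is not given here.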
Test system: MDAMB436
Assay: relative JC-1 red fluorescence (viability) vs pre-drug, coculture with fibroblast (fraction); higher = more viable cancer cells
Experimental: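 JC-1 labelled TNBC cells cocultured 1:1 (1,500 cells each) with CellTrace Violet stained primary or stromal fibroblasts in 384-well plates in FluoroBrite medium, treated with one of 42 anticancer drugs at 0.1, 1, 10 or 100 uM. JC-1 red fluorescence (mitochondrial integrity in cancer cells only) was read by plate reader every 8 h for 72 h. Values are normalised to each well's pre-drug value. The stock of one drug was tenfold lower, so its dose labels may be too high.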

Nc1ccn([C@@H]2O[C@H](CO)[C@@H](O)C2(F)F)c(=O)n1 [Gemcitabine]
relative JC-1 red fluorescence
Settings | 8 h | 16 h | 24 h | 32 h | 40 h | 48 h | 56 h | 64 h | 72 h
0.1 µM, coculture fibroblast: C12385 | 0.8088 | 0.671 | 0.643 | 0.56721 | 0.528 | 0.512 | 0.491 | 0.485 | 0.483
0.1 µM, coculture fibroblast: H6013 | 0.873 | 0.784 | 0.822 | 0.867 | 0.821 | 0.759 | 0.764 | 0.789 | 0.783
0.1 µM, coculture fibroblast: H6019 | 0.7467 | 0.64 | 0.61 | 0.527 | 0.4919 | 0.4779 | 0.4491 | 0.43 | 0.4116
0.1 µM, coculture fibroblast: H6076 | 0.746 | 0.645 | 0.637 | 0.604 | 0.613 | 0.594 | 0.618 | 0.6283 | 0.6308
0.1 µM, coculture fibroblast: H6231 | 0.775 | 0.6773 | 0.646 | 0.58 | 0.5666 | 0.5369 | 0.52775 | 0.518 | 0.509
0.1 µM, coculture fibroblast: HADF | 0.814 | 0.757 | 0.729 | 0.728 | 0.718 | 0.752 | 0.711 | 0.713 | 0.682
0.1 µM, coculture fibroblast: HCFa | 0.767 | 0.663 | 0.636 | 0.616 | 0.592 | 0.611 | 0.548 | 0.541 | 0.489
0.1 µM, coculture fibroblast: HCPF | 0.7673 | 0.682 | 0.6545 | 0.5958 | 0.582 | 0.555 | 0.5315 | 0.512 | 0.5
0.1 µM, coculture fibroblast: HHSteC | 0.886 | 0.815 | 0.821 | 0.821 | 0.827 | 0.857 | 0.818 | 0.801 | 0.747
0.1 µM, coculture fibroblast: HMF | 0.7671 | 0.643 | 0.611 | 0.574 | 0.562 | 0.527 | 0.5456 | 0.517 | 0.5249
0.1 µM, coculture fibroblast: HPFa | 0.93862 | 0.906 | 0.899 | 0.886 | 0.896 | 0.921 | 0.871 | 0.866 | 0.814
0.1 µM, coculture fibroblast: HUF | 0.847 | 0.732 | 0.692 | 0.623 | 0.572 | 0.549 | 0.527 | 0.517 | 0.511
0.1 µM, coculture fibroblast: Hs5 | 0.774 | 0.665 | 0.653 | 0.617 | 0.613 | 0.586 | 0.608 | 0.586 | 0.593
0.1 µM, coculture fibroblast: Hs27A | 0.792 | 0.715 | 0.6829 | 0.6733 | 0.655 | 0.722 | 0.674 | 0.683 | 0.639
0.1 µM, coculture fibroblast: Hs343T | 0.734 | 0.653 | 0.637 | 0.598 | 0.59 | 0.562 | 0.558 | 0.546 | 0.5491
0.1 µM, coculture fibroblast: WS1 | 0.794 | 0.6681 | 0.638 | 0.556 | 0.514 | 0.489 | 0.452 | 0.439 | 0.433
1 µM, coculture fibroblast: C12385 | 0.791 | 0.675 | 0.682 | 0.609 | 0.57 | 0.549 | 0.529 | 0.524 | 0.517
1 µM, coculture fibroblast: H6013 | 0.813 | 0.72 | 0.698 | 0.693 | 0.672 | 0.704 | 0.673 | 0.673 | 0.648
1 µM, coculture fibroblast: H6019 | 0.741 | 0.6546 | 0.6308 | 0.5573 | 0.518 | 0.5101 | 0.4791 | 0.4443 | 0.4251
1 µM, coculture fibroblast: H6076 | 0.778 | 0.653 | 0.657 | 0.619 | 0.589 | 0.566 | 0.57 | 0.56612 | 0.5711
1 µM, coculture fibroblast: H6231 | 0.765 | 0.659 | 0.664 | 0.598 | 0.58 | 0.559 | 0.56 | 0.558 | 0.545
1 µM, coculture fibroblast: HADF | 0.868 | 0.818 | 0.816 | 0.803 | 0.783 | 0.798 | 0.726 | 0.705 | 0.656
1 µM, coculture fibroblast: HCFa | 0.753 | 0.667 | 0.646 | 0.618 | 0.604 | 0.63 | 0.564 | 0.553 | 0.501
1 µM, coculture fibroblast: HCPF | 0.809 | 0.701 | 0.682 | 0.622 | 0.5917 | 0.554 | 0.521 | 0.504 | 0.482
1 µM, coculture fibroblast: HHSteC | 0.815 | 0.745 | 0.719 | 0.675 | 0.668 | 0.67 | 0.624 | 0.602 | 0.563
1 µM, coculture fibroblast: HMF | 0.7556 | 0.63275 | 0.618 | 0.587 | 0.5651 | 0.5409 | 0.543 | 0.5288 | 0.523
1 µM, coculture fibroblast: HPFa | 0.851 | 0.794 | 0.783 | 0.742 | 0.743 | 0.763 | 0.704 | 0.699 | 0.656
1 µM, coculture fibroblast: HUF | 0.838 | 0.744 | 0.74 | 0.672 | 0.63 | 0.611 | 0.594 | 0.583 | 0.585
1 µM, coculture fibroblast: Hs5 | 0.787 | 0.685 | 0.6791 | 0.6339 | 0.6281 | 0.5951 | 0.609 | 0.602 | 0.613
1 µM, coculture fibroblast: Hs27A | 0.781 | 0.722 | 0.707 | 0.709 | 0.712 | 0.792 | 0.733 | 0.743 | 0.701
1 µM, coculture fibroblast: Hs343T | 0.7442 | 0.631 | 0.623 | 0.586 | 0.573 | 0.54 | 0.544 | 0.539 | 0.541
1 µM, coculture fibroblast: WS1 | 0.784 | 0.666 | 0.656 | 0.585 | 0.5463 | 0.529 | 0.517 | 0.5 | 0.498

From the supplement of paper PMC6078165
